Measurements reported in PubChem BioAssay AID504764 (Drosophila RNAi Screening Center, 2011)

- Test: 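Genes whose knock-down alters Notch-dependent transcription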 (primary screen)
- System: Drosophila Kc167 cells
- Reagents: long dsRNA against Drosophila genes
- Timing: about 5 days (4 days dsRNA, then 24 h after transfection)
- Challenge: transfection of constitutively active membrane-tethered Notch lacking the extracellular domain, read 24 h later
- Measurement: 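Firefly luciferase from an E(spl)m3 reporter with active Notch, plus control-promoter and uninduced reporter wells for normalisation; unnormalised counts, duplicate wells a and b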
- Scale: induced reporter light, run 1, well a and induced reporter light, run 1, well b: higher = more light from the Notch target reporter with active Notch; control promoter light, run 1, well a and control promoter light, run 1, well b: higher = more light from the viral control promoter (cell number, transfection, viability); uninduced reporter light, run 1, well a: higher = more light from the Notch target reporter without active Notch
- Rule for the call: 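Wells with low control signal or poorly matching duplicates excluded; duplicates averaged; per source plate, z beyond ±2 for induced/control log2 ratio or beyond ±1.8 for induced/uninduced marks a hit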
- Meaning of the calls: active = modifier hit (raised or lowered Notch signal); inactive = not a hit
The deposit covers about 22,000 reagents; this is an unselected part of those with a known target gene and a result. Over the whole deposit, 403 (1.9%) are marked active. 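Unnormalised raw counts per well; ratio z-scores behind the hit calls and whether each hit raises or lowers signal are not deposited.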 Entries without a mark were called inactive. Reagents against one gene are numbered here. A plus sign joins genes that one reagent is predicted to hit. No sequences are given here. The record does not give: the amount of reagent.

no.	gene	reagent	induced reporter light, run 1, well a	induced reporter light, run 1, well b	control promoter light, run 1, well a	control promoter light, run 1, well b	uninduced reporter light, run 1, well a
1	Vha100-3 (GeneID 246543)	1	17120	16500	9610	10865	3315
2	CG9101 (GeneID 32452)	1	48910	56750	78760	85860	9538
3	CG4853 (GeneID 36974)	1	1.12e5	1.12e5	1.93e5	1.86e5	9610
4	CG13983 (GeneID 33875)	1	99100	75805	1.01e5	66145	5305
5	Ance-4 (GeneID 35909)	1	1.37e5	1.51e5	1.74e5	1.78e5	14205
6	JTBR (GeneID 38235)	1	1.23e5	1.04e5	2.16e5	2.15e5	8750
7	MESR6 (GeneID 40083)	1	1.28e5	1.02e5	61475	84705	8335
8	bnb (GeneID 32872)	1	1.38e5	1.01e5	98795	55460	9190
9	ZIPIC (GeneID 43566)	1	2.01e5	2.11e5	2.57e5	2.72e5	16470
10	CR18275 + CR18166 + CG32817	1	52790	63035	84165	81400	4555
11	CAH7 (GeneID 41238)	1	30860	29550	37585	26145	1905
12	CG4213 (GeneID 33209)	1	1.28e5	1.00e5	86545	55080	8610
13	CG34290 (GeneID 5740609)	1	2.03e5	1.88e5	2.01e5	1.94e5	16935
14	hmw (GeneID 42207)	1	2.06e5	2.20e5	2.65e5	2.57e5	16365
15	Pngl (GeneID 35527)	1	2.53e5	2.07e5	2.20e5	1.97e5	17515
16	CG13217 (GeneID 36180)	1	1.16e5	1.58e5	1.65e5	1.80e5	13015
17	CG8665 (GeneID 35407)	1	22690	41470	44610	43980	2410
18	CG33791 + CG18170	1	1.21e5	1.07e5	1.83e5	1.63e5	6440
19	CG33791 + CG18170	2	1.74e5	1.99e5	2.54e5	2.98e5	10150
20	CG10171 (GeneID 39501)	1	1.16e5	1.07e5	1.08e5	65970	10550
21	CG31321 (GeneID 318681)	1	1.07e5	86665	1.44e5	1.38e5	9850
22	CG12911 (GeneID 36081)	1	1.88e5	1.97e5	2.88e5	2.08e5	16590
23	ND-B14.5AL (GeneID 40477)	1	1.43e5	1.03e5	1.25e5	1.12e5	11770
24	CG10553 (GeneID 43064)	1	1.56e5	1.32e5	2.03e5	2.13e5	13055
25	Taf10b + Taf10	1	90545	75710	41080	33250	6425
26	CG8492 (GeneID 38866)	1	1.53e5	1.59e5	1.75e5	1.46e5	7525
27	pxb (GeneID 41899)	1	96535	1.36e5	1.61e5	1.93e5	8795
28	pxb (GeneID 41899)	2	2.64e5	2.89e5	2.17e5	2.45e5	20420
29	pxb (GeneID 41899)	3	2.25e5	2.62e5	2.12e5	2.41e5	17950
30	CG7646 (GeneID 40187)	1	1.17e5	90080	1.47e5	1.45e5	8810
31	knrl (GeneID 40285)	1	1.10e5	85905	61095	62845	7890
32	CG12511 (GeneID 33797)	1	56480	57930	66340	70390	3550
33	Mis12 (GeneID 38762)	1	3.04e5	1.92e5	2.21e5	2.26e5	11405
34	sktl (GeneID 37356)	1	1.60e5	1.58e5	1.24e5	1.46e5	13700
35	CG15046 (GeneID 32833)	1	1.21e5	1.10e5	1.38e5	1.25e5	14260
36	qjt (GeneID 39952)	1	2.22e5	2.25e5	2.89e5	2.85e5	7460
37	can (GeneID 45432)	1	1.63e5	1.66e5	2.31e5	1.89e5	11610
38	CG13130 (retired record) (GeneID 50439)	1	75460	1.11e5	69530	75125	14170
39	vanin-like (GeneID 31551)	1	73285	71335	64715	56500	4800
40	nAChRbeta1 (GeneID 38545)	1	1.75e5	1.57e5	1.91e5	2.09e5	9332
41	nAChRbeta1 (GeneID 38545)	2	1.98e5	1.44e5	1.48e5	77690	16185
42	ATbp (GeneID 5740592)	1	47505	66630	52185	58575	9555
43	CG6567 + CG4565	1	1.34e5	1.42e5	1.98e5	1.17e5	10610
44	Pdk1 (GeneID 38017)	1	74500	57285	1.29e5	93395	3860
45	Fen1 (GeneID 36887)	1	68020	92250	1.15e5	1.49e5	8385
46	Ctf4 (GeneID 36551)	1	1.35e5	1.23e5	1.12e5	1.19e5	10820
47	dmGlut (GeneID 47253)	1	2.01e5	1.72e5	1.29e5	1.35e5	15035
48	CG31915 (GeneID 319025)	1	1.39e5	1.25e5	1.93e5	1.40e5	9780
49	CG7381 (GeneID 41589)	1	1.19e5	1.46e5	89295	88485	11242
50	DZIP1 (GeneID 42921)	1	1.52e5	1.72e5	1.96e5	2.12e5	11592

Records above whose gene name begins with D or d:
gene	reagent	induced reporter light, run 1, well a	induced reporter light, run 1, well b	control promoter light, run 1, well a	control promoter light, run 1, well b	uninduced reporter light, run 1, well a
dmGlut (GeneID 47253)	1	2.01e5	1.72e5	1.29e5	1.35e5	15035
DZIP1 (GeneID 42921)	1	1.52e5	1.72e5	1.96e5	2.12e5	11592
